Laboratory results as given in PubChem BioAssay AID504467 (National Center for Advancing Translational Sciences (NCATS), 2011).
The whole screen tested about 330,000 compounds, of which about 7,700 (2.3%) were called active. Inconclusive means that the source gave no clear call. Such entries were picked first, then a sample of the others. Calls follow the shape of the dose curve; as a rule, active = well fitted inhibition curve with a large enough effect; inconclusive = small, poorly fitted or top-dose-only effect, or effect the other way; inactive = flat fitted curve, though single readings scatter. A potency beside an inconclusive call is a rough fit, not a confirmed value.
% is scaled to controls: 0 for no effect and ±100 for the full control effect; potency is read from the fitted curve at half-maximal effect.

Experiment: qHTS screen for small molecules that inhibit ELG1-dependent DNA repair in human embryonic kidney (HEK293T) cells expressing luciferase-tagged ELG1; also: nearly all actives have a fitted effect of over 55% in size
Conditions: HEK293T ELG1-luciferase reporter, luminescence, 16 h, DNA damage induced by 5-fluorouridine; activity change, negative = inhibition: at 46.1 µM (top of the series)
Procedure, shortened: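 Step one: seed 2,000 cells per well. Step two: pin-transfer compound or DMSO alongside 5-fluorouridine. Step three: incubate 16 hr, 37 °C, 5% CO2. Step four: add ONE-Glo, wait 30 min, read luminescence.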
For `CC1CCCC(C)N1C(=O)COC(=O)c1cccs1` (stereo not drawn), the Potency was inconclusive: 14.6 µM [activator, single point].
With `CSc1nc(-c2ccc(C)cc2)[nH]c1S(=O)(=O)c1ccccc1` the Potency was inconclusive: 0.731 µM [inhibitor, full curve, poor fit].
For `COCCn1c(C)cc(C(=O)CSc2nnc(C3CC3)n2C2CC2)c1C`, the Potency was inconclusive: 20.6 µM [activator, single point].
With `COc1cc(NC(=O)Cc2nn(C)c(=O)c3ccccc23)cc(OC)c1` the Potency was inconclusive: 2.91 µM [inhibitor, partial curve, poor fit].
With `COC(=O)CN1C(c2ccccc2)=Nc2ccc(Cl)cc2C1c1ccccc1` (stereo not drawn) the Potency was inconclusive: 29.1 µM [inhibitor, single point].
With `Cc1cc(C)c(N=Cc2c(O)c3ccccc3oc2=O)c(C)c1` the Potency was inconclusive: 10 µM [activator, partial curve, poor fit].
In the case of `CC(O)Cc1nsc(NC(=O)c2cccs2)n1` (stereo not drawn), the Potency is reported as inconclusive: 32.6 µM [activator, single point].
For `CCOc1ccc2nc(NC(=O)C(NS(=O)(=O)c3cccc4nsnc34)C(C)C)sc2c1` (stereo not drawn), the Potency was inconclusive: 29.1 µM [inhibitor, single point].
For `Nc1c(C(=O)c2ccccc2)oc2ccc([N+](=O)[O-])cc12`, the Potency was inconclusive: 2.59 µM [activator, full curve].
With `O=C(O)c1ccc(N/N=C/c2cccc(F)c2)cc1` the Potency was inconclusive: 0.731 µM [activator, partial curve].
In the case of `CCc1ccc(C(=O)NCC2COc3ccccc3O2)o1` (stereo not drawn), the Potency is reported as inconclusive: 15.8 µM [activator, partial curve].
For `Cc1cc(NC(=O)c2cc(C(C)C)on2)nn1Cc1ccc(Cl)cc1`, the Potency was inconclusive: 14.6 µM [inhibitor, partial curve, poor fit].
In the case of `COc1cc2c(cc1OC)[C@@H](NC(=O)c1ccc(C(F)(F)F)cc1)[C@H](OCc1ccccc1)C2`, the Potency is reported as inconclusive: 29.1 µM [activator, single point].
For `CCOC(=O)c1cnn(-c2ccccc2)c1NC(=O)CN1CCCCC1`, the “activity change, negative = inhibition” value was inactive: 5.66%.
In the case of `Fc1cccc(-c2csc(-c3ccno3)n2)c1`, the Potency is reported as inconclusive: 32.6 µM [activator, partial curve, poor fit].
With `CC1N(C(=O)N2CCOCC2)CCN1S(=O)(=O)c1ccc(Cl)cc1` (stereo not drawn) the “activity change, negative = inhibition” value was inactive: 6.89%.
For `CCN(CC(=O)Nc1ccc(NC(C)=O)cc1)C(=O)/C=C/c1cn(-c2ccccc2)nc1-c1cccs1`, the Potency was inconclusive: 16.4 µM [inhibitor, single point].
For `CCNC(=S)N/N=C/c1cccc(C)c1`, the Potency was inconclusive: 16.4 µM [activator, partial curve].
With `O=C(Nc1ccc2c(c1)OCCO2)c1cc2ccccc2o1` the Potency was inconclusive: 2.31 µM [activator, partial curve].
With `CCN(CC(=O)Nc1c(F)cccc1F)C(=O)CSC(=S)N1CCCC1` the Potency was inconclusive: 18.3 µM [activator, partial curve, poor fit].
For `Cn1c(Nc2ccccc2)nc2ccccc21`, the Potency was inconclusive: 18.3 µM [activator, partial curve].
For `O=C(Nc1ccc(OC(F)(F)F)cc1)Nc1cccc([N+](=O)[O-])c1`, the Potency was inconclusive: 6.51 µM [inhibitor, single point].
For `CSc1ccccc1NC(=O)c1cc(CC(C)C)on1`, the Potency was inconclusive: 20.6 µM [activator, partial curve].
In the case of `N#Cc1cccc(S(=O)(=O)Nc2c(NC3CCCCC3)c3ccccc3oc2=O)c1`, the “activity change, negative = inhibition” value is reported as inactive: 9.11%.
With `CCCc1nc(NC2CCCCC2)c(C#N)c2c1COC(C)(C)C2` the Potency was inconclusive: 20.6 µM [inhibitor, single point].
In the case of `Cc1cccn2c(=O)c3cc(C(=O)NCC4CCCO4)c(=N)n(Cc4cccnc4)c3nc12` (stereo not drawn), the “activity change, negative = inhibition” value is reported as inactive: -14.7%.
In the case of `Cc1cn(S(=O)(=O)c2ccc(Br)c3ccccc23)cn1`, the “activity change, negative = inhibition” value is reported as inactive: 27.8%.
For `COc1cccc2cc(C(=O)NCc3ccccc3)c(=N)oc12`, the Potency was inconclusive: 20.6 µM [activator, single point].
For `CSCC[C@H](NC(=O)c1ccco1)c1nnc2ccccn12`, the “activity change, negative = inhibition” value was inactive: 0%.
For `CCc1nc2ccc(C(=O)O)cc2nc1CC`, the Potency was inconclusive: 2.91 µM [activator, partial curve].
With `N=C1S/C(=C\c2ccco2)C(=O)N1c1ccc2c(c1)OCO2` the Potency was inconclusive: 14.6 µM [activator, partial curve, poor fit].
For `COc1ccc(NC(=O)c2nc(S(=O)(=O)Cc3cccc(C)c3)ncc2Cl)c(OC)c1`, the Potency was inconclusive: 29.1 µM [inhibitor, single point].
For `CC(=O)N1CCN(c2ccc(NCc3ccc(-c4ccc(Br)cc4)o3)cc2)CC1`, the “activity change, negative = inhibition” value was inactive: -6.55%.
With `Cc1cccc(C(=O)Nc2ccccc2C(=O)Nc2ccc(C(=O)O)cc2)c1` the Potency was inconclusive: 29.1 µM [activator, single point].
With `CCn1cc(C(=O)N2CCCC2)c(=O)c2cc(S(=O)(=O)N3CC(C)CC(C)C3)ccc21` (stereo not drawn) the “activity change, negative = inhibition” value was inactive: 1.14%.
In the case of `O=C(Nc1nnc(SCc2ccccc2F)s1)C1=COCCO1`, the Potency is reported as inconclusive: 20.6 µM [activator, partial curve].
For `CCc1ccc(/C=C/C(=O)c2c(C)cc(C)[nH]c2=O)cc1`, the Potency was active: 20.6 µM.
With `Cc1ccc(CSCc2ccc(C(=O)O)o2)cc1` the Potency was inconclusive: 18.3 µM [activator, single point].
With `CN1CCN(CCCNC(=O)Cn2ncc3c4ccccc4n(C)c3c2=O)CC1` the Potency was inconclusive: 18.4 µM [activator, partial curve, poor fit].
With `CC(C)(C)OC(=O)C[C@@H]1C/C=C\C[C@@H](CC(=O)NCCO)C(=O)NCCOC1=O` the Potency was inconclusive: 9.2 µM [activator, partial curve].
For `Cc1ccc(C(=O)Nc2cccc(-c3ccc(N4CCOCC4)nn3)c2)cc1[N+](=O)[O-]`, the Potency was inconclusive: 23.1 µM [inhibitor, single point].
With `COc1ccc2c(c1)CC/C(=C\c1ccc(OC)c(Cn3cccn3)c1)C2=O` the Potency was inconclusive: 29.1 µM [inhibitor, single point].
In the case of `CC(C)C(=O)Nc1ccc(-c2nnc(-c3ccccc3)o2)cc1`, the Potency is reported as inconclusive: 1.46 µM [activator, full curve].
With `COc1ccc(Cl)cc1NC(=O)CN(C)Cc1ccc(OC)c(OC)c1` the Potency was inconclusive: 32.6 µM [inhibitor, partial curve, poor fit].
In the case of `CCCc1[nH]nc2c1C1(CCN(C(=O)OCc3ccccc3)CC1)C(C#N)=C(N)O2`, the Potency is reported as inconclusive: 15.8 µM [inhibitor, partial curve, poor fit].
With `Cc1cccc(CSc2cccc3cccnc23)c1` the Potency was inconclusive: 13 µM [activator, partial curve].
In the case of `CCCc1cc2c(=O)c(-c3ccc4c(c3)OCCO4)c(C)oc2cc1OS(C)(=O)=O`, the Potency is reported as active: 13 µM.
For `COc1ccc(NC(=O)c2cccnc2Nc2ccc(OC)cc2)cc1`, the Potency was inconclusive: 18.4 µM [inhibitor, single point].
For `COc1ccccc1CN(Cc1cc2cc(C)ccc2[nH]c1=O)Cc1nnnn1CC1CCCO1` (stereo not drawn), the Potency was inconclusive: 25.9 µM [inhibitor, single point].
With `Cc1nc(-c2ccccc2)sc1C(=O)/C=C/c1ccccc1` the Potency was inconclusive: 29.1 µM [activator, single point].
In the case of `COc1ccc(OC)c2sc(N3CCCCC3)nc12`, the Potency is reported as inconclusive: 14.6 µM [activator, partial curve].
With `C#CCOCCOCCOCCNc1nc(N2CCN(C(=O)[C@H](CC(N)=O)n3cc(C(N)[C@H](C)CC)nn3)CC2)nc(N2CCN(C(=O)[C@H](CC(N)=O)n3cc(C(N)[C@@H](C)CC)nn3)CC2)n1` (stereo partly drawn) the “activity change, negative = inhibition” value was inactive: 16.4%.
With `O=C(c1cc(-c2ccncc2)nc2ccccc12)N1CCN(Cc2ccccc2)CC1` the Potency was active: 20.6 µM.
For `CC(C)(c1ccccc1)c1ccc(OCCN)cc1`, the Potency was inconclusive: 32.6 µM [activator, partial curve, poor fit].
In the case of `Cc1nc(SCc2ccc(C#N)cc2)n[nH]1`, the Potency is reported as inconclusive: 16.4 µM [activator, partial curve, poor fit].
With `CC(CCc1ccccc1)NC(=O)c1ccc2nc(N3CCOCC3)sc2c1` (stereo not drawn) the Potency was inconclusive: 2.59 µM [inhibitor, full curve, poor fit].
In the case of `Cc1nc2cc(NC(=O)Nc3nccs3)ccc2n1C`, the Potency is reported as inconclusive: 2.91 µM [activator, full curve].
With `CCc1ccc(-c2nc(CS(=O)CC(=O)NCCc3ccccc3)c(C)o2)cc1` (stereo not drawn) the Potency was inconclusive: 18.3 µM [activator, single point].
For `COc1cc2sc3cc(NCC[C@@H]4CCCN4C)ccc3c(=O)c2cc1OC`, the Potency was inconclusive: 6.51 µM [activator, partial curve].
With `CCCc1cc(C(=O)N2CCCC(N3CCN(c4ccccc4C)CC3)C2)n(C)n1` (stereo not drawn) the Potency was inconclusive: 10.3 µM [inhibitor, partial curve, poor fit].
For `Cc1ccccc1C(=O)NCCn1cc(SCC(=O)NCC2CCCO2)c2ccccc21` (stereo not drawn), the Potency was inconclusive: 18.3 µM [inhibitor, partial curve, poor fit].
In the case of `COc1cccc(NC(=O)C2CCCN(S(=O)(=O)c3cccc4nonc34)C2)c1` (stereo not drawn), the Potency is reported as inconclusive: 29.1 µM [activator, partial curve, poor fit].
In the case of `COc1ccccc1CN(CC(=O)NCc1ccc2c(c1)OCO2)C(=O)c1ccc2c(c1)OCCO2`, the Potency is reported as inconclusive: 20.6 µM [inhibitor, partial curve].
